The test system of one assay is S. aureus UC-20205. Briefly: Determination of minimum inhibitory concentration (microdilution). In kind it is cell-based. To be noted: Staphylococcus aureus, UC20205, 18 h, read-out: MIC (minimum inhibitory concentration). A general note: Dilution methods test growth across graded concentrations, often in twofold steps.
In the next assay the test system is S. aureus UC-20206. The assay is described as above. In kind it is cell-based. Particulars: Staphylococcus aureus, UC20206, 18 h, read-out: MIC (minimum inhibitory concentration).

Values after ≈ are worked out from the molar mass of the structure shown.

In the case of `CN[C@H](CC(C)C)C(=O)N[C@H]1C(=O)N[C@@H](CC(N)=O)C(=O)N[C@H]2C(=O)N[C@H]3C(=O)N[C@H](C(=O)N[C@H](C(=O)O)c4cc(O)cc(O)c4-c4cc3ccc4O)[C@H](O)c3ccc(c(Cl)c3)Oc3cc2cc(c3O[C@@H]2O[C@H](CO)[C@@H](O)[C@H](O)[C@H]2O[C@H]2C[C@](C)(N)[C@H](O)[C@H](C)O2)Oc2ccc(cc2Cl)[C@H]1O` [Vancomycin], the MIC with S. aureus UC-20205 and in the assay on S. aureus UC-20206 was 1 µg/mL (≈ 0.69 µM) each time.

The values are drawn from patent US7322965B2, “Infection-resistant medical devices” (priority 2002, dated 2008).
